Measured values: article PMC10724061

Biological target: Flag–FIO1–GFP (Arabidopsis)
Assay: co-IP; 6-day-old Arabidopsis plants pACT2::Flag–FIO1–GFP x 35S::SPA1–Myc grown under blue light (25 μmol m^−2 s^−1); Flag resin for IP; blot with anti-Flag or anti-Myc

B1: SPA1–Myc (protein, UniProt Q9SYX2 1-1029)
chain: MPVMERVAEETVATNNIQLKARVDDVPCNKLDARHNDMVIQSETANSDCPGSSAHRNVDLTKPPPPEEAAGAKLSVEELTLGNYRIVQGSNNTNVDSPRAGKFEHLYRLARGSAFRAGDGDLDSQPRDMDQMLSRIRQQLAGAPSERQNLKPFMSRRSDQNLEAFSERLRAAGENSIMNAPALISEGVQMKTPVSSSNFSQLLLKRAMKGKGVVGKNQETPPEFVSDQDLGSKEKKLDISKSPTPHDVLPLKSSPKGNGMVSHGDGNHSKSSIGISLREFLRSSYAKREKRHGLCLFRQLVELVDSAHSKRLFLLDLRPSLFTLVPSKKLRYIGNFGKNDLESDVDEDLNRRRPVVEESSSGGRDSKKRKMDLHLNSPGNQLQATSTGRPFKRKSPVIDLNMVDARNPDSCELQQQDYIKNLSVSSVSRKQSMSTWLEEQWYTCPEEINGEDIGEKSNIYALGVLLFELLCHCESGEMHAAMMADLRHRILPPTFLSKYPKEAGFCLWLLHPEPSSRPSARDILKSELICEDDSVKSTAAAEEISELLLHFLSSLEVQKKKKASKLLQDIQTLEDDIKEAERRYSSNVSLVRSHGAIEKRVQSSPLDEHCTTSSALFVPTANTDRLMSNIRQLEDAYFFMRSQINLSSSAATARSDKTLKDRDRCSENQNENQDMSTKGKSSDQLEVFFEGLCKFARYSKFETCGTIRSGDLLNSASVVCSLSFDPDEEHIAAAGISKKIKIFDFNAFMNESVGVHYPLVEMVNKSKLSCVCWNSYIKNYLASTDYDGVVQIWDAGTGQGFSQYTEHQKRAWSVDFSPSDPTKFVSGSDDCSVKLWSINEKRSLGTIWSPANVCCVQFSSYSNHLLAFGSADYKVYCYDLRYVKTPWCTLAGHEKAVSYVKFMDSETIVSASTDNSLKLWNLNKTNSSGLSPGACSLTYKGHTNQKNFVGLSVLDGYIACGSETNEVYSYYKSLPMPMTSYKFGSVDPISGNEYFDDNGQFVSSVCWRKKSNMLVAANSTGNMKLLKLV
binding: binds

Results are given in words; binding and its absence hold for the method and conditions named. Binding seen in cells or lysates may run through a third protein. Binding can be weak; no strength is given. Tags and fused reporters may be left off the sequences shown.
